Assay results as given in publication PMC7042329.
Results are given in words; binding and its absence hold for the method and conditions named. In cells and extracts the contact can be indirect. Some results given as binding are weak or reduced against the parent protein; the word gives no strength.

Sequences of proteins named here, by UniProt entry; tags and fusion partners are left off.
UniProt Q8ND76: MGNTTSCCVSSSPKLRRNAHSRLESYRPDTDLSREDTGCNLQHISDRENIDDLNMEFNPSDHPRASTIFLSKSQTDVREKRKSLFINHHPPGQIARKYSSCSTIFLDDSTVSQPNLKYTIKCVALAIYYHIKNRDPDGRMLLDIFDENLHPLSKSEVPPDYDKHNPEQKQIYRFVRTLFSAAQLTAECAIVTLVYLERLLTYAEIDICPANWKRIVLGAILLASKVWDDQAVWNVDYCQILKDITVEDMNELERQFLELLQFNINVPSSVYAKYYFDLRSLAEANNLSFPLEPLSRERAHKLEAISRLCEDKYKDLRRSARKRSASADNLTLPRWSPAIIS
UniProt Q96Q40: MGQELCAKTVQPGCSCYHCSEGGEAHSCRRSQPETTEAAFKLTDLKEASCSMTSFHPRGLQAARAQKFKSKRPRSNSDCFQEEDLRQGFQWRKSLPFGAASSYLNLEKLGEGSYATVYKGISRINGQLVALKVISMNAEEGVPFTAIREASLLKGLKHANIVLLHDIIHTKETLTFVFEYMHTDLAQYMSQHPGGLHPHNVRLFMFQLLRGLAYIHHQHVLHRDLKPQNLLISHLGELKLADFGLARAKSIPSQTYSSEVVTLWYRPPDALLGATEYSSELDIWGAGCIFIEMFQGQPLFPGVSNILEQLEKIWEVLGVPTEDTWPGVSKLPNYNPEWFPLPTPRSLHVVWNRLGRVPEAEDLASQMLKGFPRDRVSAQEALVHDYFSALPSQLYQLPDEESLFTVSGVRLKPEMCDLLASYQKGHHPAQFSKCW
UniProt O94921: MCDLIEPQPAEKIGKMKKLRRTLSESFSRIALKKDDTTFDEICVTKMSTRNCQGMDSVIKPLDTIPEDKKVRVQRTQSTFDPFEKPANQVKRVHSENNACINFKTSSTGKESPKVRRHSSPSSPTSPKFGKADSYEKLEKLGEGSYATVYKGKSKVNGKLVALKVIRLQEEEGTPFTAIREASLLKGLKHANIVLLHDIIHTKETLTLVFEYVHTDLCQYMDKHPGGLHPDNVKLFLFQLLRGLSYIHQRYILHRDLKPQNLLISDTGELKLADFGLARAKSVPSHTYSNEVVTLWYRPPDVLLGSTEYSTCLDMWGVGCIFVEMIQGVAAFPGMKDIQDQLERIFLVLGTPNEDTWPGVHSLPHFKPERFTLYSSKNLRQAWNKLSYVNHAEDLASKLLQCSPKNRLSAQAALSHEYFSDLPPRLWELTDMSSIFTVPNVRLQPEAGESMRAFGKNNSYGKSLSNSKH

Target: Cyclin Y-Flag (human) (UniProt Q8ND76)
Test: co-IP; HeLa cells transfected with Cyclin Y-Flag, with or without GFP-tagged CDK; with or without 0.5 mM AICAR/50 µM A769662 for 1 h; lysate in Frackelton buffer, anti-FLAG M2 beads 2 h at 4 °C, three washes, immunoblot

Row | binding | Substance
1 | binds | GFP-tagged CDK15 (from UniProt Q96Q40 1-435) (enzyme)
2 | binds | GFP-tagged CDK14 (from UniProt O94921 1-469) (enzyme)
